Source: article PMC13226697, “Stress-induced OMA1-mediated cleavage of AIFM1 suppresses cell growth by controlling mitochondrial OXPHOS activity” (The EMBO Journal, 2026)
No constants are given. Whether binding was seen depends on the method and setting. In cells and extracts the contact can be indirect. Some binding calls cover weakened binding; strength is not graded here.

By UniProt entry, the sequences of proteins in these tests, tags left out. Where a name states a change or a piece, a line headed by the entry shows the natural chain unless it says otherwise. Chains listed by the source or under a name are the forms on record and can include a tag or linker. Residues count along the entry.
AIFM1^TCS/TEV, soluble product of AIFM1^TCS cleaved by IMS-TEV protease (Q9Z0X1, form named): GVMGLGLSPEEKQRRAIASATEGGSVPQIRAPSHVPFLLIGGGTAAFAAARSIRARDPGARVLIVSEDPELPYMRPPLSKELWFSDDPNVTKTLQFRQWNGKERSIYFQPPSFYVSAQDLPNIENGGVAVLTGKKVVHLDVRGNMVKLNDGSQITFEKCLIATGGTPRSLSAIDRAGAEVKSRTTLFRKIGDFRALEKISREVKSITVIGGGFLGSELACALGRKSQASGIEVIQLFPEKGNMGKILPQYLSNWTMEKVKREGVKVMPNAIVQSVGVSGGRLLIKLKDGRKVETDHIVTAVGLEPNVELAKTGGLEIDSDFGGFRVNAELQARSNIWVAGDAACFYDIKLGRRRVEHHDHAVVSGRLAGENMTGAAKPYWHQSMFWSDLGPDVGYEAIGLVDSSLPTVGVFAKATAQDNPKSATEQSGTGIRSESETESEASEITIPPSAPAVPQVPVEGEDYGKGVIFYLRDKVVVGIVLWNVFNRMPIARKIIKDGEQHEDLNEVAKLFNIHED
UniProt O60830: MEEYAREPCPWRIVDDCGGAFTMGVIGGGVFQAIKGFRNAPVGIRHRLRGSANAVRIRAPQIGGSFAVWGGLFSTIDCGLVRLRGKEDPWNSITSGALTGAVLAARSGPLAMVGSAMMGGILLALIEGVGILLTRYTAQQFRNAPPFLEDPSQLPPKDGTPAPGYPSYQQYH
UniProt Q99595: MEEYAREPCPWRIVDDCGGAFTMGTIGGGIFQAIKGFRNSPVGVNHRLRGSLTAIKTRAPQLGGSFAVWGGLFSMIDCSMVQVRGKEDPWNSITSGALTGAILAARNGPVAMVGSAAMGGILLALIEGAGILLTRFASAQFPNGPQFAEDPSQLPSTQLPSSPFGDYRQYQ
UniProt Q3ZCQ8, residues 45-353: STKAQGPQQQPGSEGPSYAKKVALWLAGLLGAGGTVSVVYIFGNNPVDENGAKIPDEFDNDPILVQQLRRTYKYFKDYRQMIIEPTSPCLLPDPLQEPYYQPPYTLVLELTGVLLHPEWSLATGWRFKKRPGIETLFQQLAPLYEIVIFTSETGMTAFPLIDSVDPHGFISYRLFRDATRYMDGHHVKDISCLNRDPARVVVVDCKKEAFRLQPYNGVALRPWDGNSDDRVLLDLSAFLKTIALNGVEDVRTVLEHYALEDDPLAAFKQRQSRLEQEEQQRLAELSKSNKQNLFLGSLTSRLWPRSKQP

Tests used:
[1] = target: T1, TIM23, endogenous human (human (endogenous in Flp-In T-REx-293 and HeLa)) (UniProt O14925); assay: co-IP; HeLa lysates, with or without CHX (10 μg/mL), immunoprecipitated with anti-TIM23 monoclonal antibody or control IgG (anti-GFP), western blot
T1 sequence: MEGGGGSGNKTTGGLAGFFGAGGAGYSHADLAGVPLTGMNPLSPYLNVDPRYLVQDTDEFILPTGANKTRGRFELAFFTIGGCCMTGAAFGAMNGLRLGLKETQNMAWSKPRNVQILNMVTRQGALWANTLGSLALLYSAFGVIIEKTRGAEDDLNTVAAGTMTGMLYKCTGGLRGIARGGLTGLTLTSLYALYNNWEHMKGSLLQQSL

[2] = target: AIFM1^TCS/TEV, soluble product of AIFM1^TCS cleaved by IMS-TEV protease (murine) (UniProt Q9Z0X1); assay: co-IP; mitochondrial extracts of AIFM1^TCS and AIFM1^TCS/TEV cells immunoprecipitated with anti-Myc, immunoblot

binding [1] | binding [2] | Molecule
binds |  | TIM17B, endogenous human (from UniProt O60830 1-172)
binds |  | TIM17A, endogenous human (from UniProt Q99595 1-171)
 | binds | TIM50, endogenous human (from UniProt Q3ZCQ8 45-353)
 | binds | TIM23, endogenous human (protein, UniProt O14925 1-209) MEGGGGSGNKTTGGLAGFFGAGGAGYSHADLAGVPLTGMNPLSPYLNVDPRYLVQDTDEFILPTGANKTRGRFELAFFTIGGCCMTGAAFGAMNGLRLGLKETQNMAWSKPRNVQILNMVTRQGALWANTLGSLALLYSAFGVIIEKTRGAEDDLNTVAAGTMTGMLYKCTGGLRGIARGGLTGLTLTSLYALYNNWEHMKGSLLQQSL
